No constants are given. Whether binding was seen depends on the method and setting. Binding seen in cells or lysates may run through a third protein. Binding can be weak; no strength is given.
Molecular target: bHLHLZ domain of N-Myc (amino acids 309–394) (UniProt P04198)
Experiment: co-purification (Ni-NTA IMAC, then size exclusion chromatography); His-N-Myc(309-394) and Max(12-93) co-expressed from pETDuet in E. coli BL21; lysate on Ni-NTA, eluted with 300 mM imidazole, 20 mM Tris pH 8, 500 mM NaCl; then Superdex 75

Protein sequences, listed by entry. Tags and fused reporters are not part of them. Lines headed by an entry give the natural chain unless they say otherwise; changes in a name come on top. Residues count along the entry.
UniProt P04198: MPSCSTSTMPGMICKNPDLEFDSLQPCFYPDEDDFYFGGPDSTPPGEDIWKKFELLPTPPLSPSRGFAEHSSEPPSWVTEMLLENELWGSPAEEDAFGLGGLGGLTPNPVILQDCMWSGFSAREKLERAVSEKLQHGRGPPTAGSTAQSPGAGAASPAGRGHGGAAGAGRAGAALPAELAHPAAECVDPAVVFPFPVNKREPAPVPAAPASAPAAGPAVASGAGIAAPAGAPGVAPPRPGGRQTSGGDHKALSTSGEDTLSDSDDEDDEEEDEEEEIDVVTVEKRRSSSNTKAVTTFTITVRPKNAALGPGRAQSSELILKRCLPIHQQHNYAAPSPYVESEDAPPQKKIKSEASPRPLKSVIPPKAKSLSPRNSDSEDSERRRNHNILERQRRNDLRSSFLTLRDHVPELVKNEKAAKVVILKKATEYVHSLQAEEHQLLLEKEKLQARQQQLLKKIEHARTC
UniProt P61244, residues 12-93: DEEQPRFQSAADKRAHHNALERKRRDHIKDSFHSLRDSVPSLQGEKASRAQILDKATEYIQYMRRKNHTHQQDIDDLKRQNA

With “Max (amino acids 12–93) (from UniProt P61244 12-93) (domain or fragment)” as the substance, how does the binding read?
Its binding is “binds”.
